This note sets out measurements from paper PMC8749417.

Assay [1] deals with Flag-pGSDMD-1-193 (porcine). As to the kind of experiment: co-IP; HEK293T cells transfected for 24 h, lysed; supernatants incubated with anti-Flag binding beads at 4°C overnight, washed with TBS 5 times, immunoblot. A general note: In western blotting, separated proteins are transferred to a membrane and probed.
Assay [2] deals with Flag-pGSDMD-194-279 (porcine). The description is as above.

Results are given in words; binding and its absence hold for the method and conditions named. Binding seen in cells or lysates may run through a third protein. Tags and fused reporters may be left off the sequences shown.

B1: porcine Caspase-1, HA-tagged (HA-pCaspase-1) (enzyme, UniProt Q9N2I1 1-404)
chain: MADKVLKEKRRLFVRSVAMGTINGLLDELLETRVLNQEEVEIVRGENATVMDKARALIDSVIRKGPQACQICINHICGDDPHLAGVLELSTGSQSGKCLTVQESQAVVPPFPAPQTVQDNPVKPASSEPRGSLKLCPPDIAQRLWKEKSAEIYPIMGKSIRTRLALIICNTEFENLPRRDGADVDIRDMKILLEDLGYSVDVRENLTASDMAIELKAFAARPEHKSSDSTFLVLMSHGIQAGICGKKYSEEVPDVLEVNTVFQILNTLNCPSLKDKPKVIIIQACRGEKQGVVWIKDSVGPSGNSSLLAAEDFEYDAIKKAHIEKDFIAFCSSTPDNVSWRHPLLGSLFIIKLIKILQEHAWSCGLEEIFRKVRFSFELADGRAQMPTAERVTLTRSFYLFPGH
On to B1, for which the binding entry in assay [1] and in assay [2] was “no binding” in each case.
